Data from PubChem BioAssay AID493014 (National Center for Advancing Translational Sciences (NCATS), 2011).
In all, about 340,000 compounds went through this assay and about 170 (0.05%) were called active. This list was built around the results that the source calls inconclusive (neither active nor inactive); the mix of calls is not that of the screen. The call rests on the fitted dose curve; in most records, active means well fitted inhibition curve with a large enough effect in the signal ratio, with a control signal flat (not every such curve was filed as active); inconclusive means small, poorly fitted or top-dose-only effect, or effect the other way, or a change in a side signal; inactive means flat fitted curve, though single readings scatter; the % refers to the signal ratio. Potencies of inconclusive entries are doubtful fits and often do not repeat.

Assay: qHTS Assay to Find Inhibitors of Chronic Active B-Cell Receptor Signaling;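 on activity change, negative = inhibition: plate controls were basal doxycycline-induced cells for no effect and cells given 10 µM MG132 for full effect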
Conditions: ABC-DLBCL IkBa-CBG/CBR reporter, luminescence ratio (green luciferase fused to IkBa over red control in TMD8 lymphoma cells), 4 h; activity change, negative = inhibition: at 46.1 µM (top of the series)
In short: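 Concentration-response series (up to 46 uM) were applied to TMD8 dual-reporter cells for 4 h at 37C with doxycycline. Green/red ratio, after filter-overlap correction, defined %Activity; red signal alone was normalised to basal cells and zero luminescence.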
Potency means the concentration at half of the fitted maximal effect.

Compound | Potency | activity change, negative = inhibition
Cc1ccccc1NC(=O)c1ccc(Cl)c(NC(=O)c2cccnc2)c1 | inconclusive: 12.6 µM [falling, partial curve, poor fit] | –
COC(=O)c1ccccc1NC(=O)C(=O)NCC1CCCO1 (stereo not given) | inconclusive: 4.61 µM [falling, partial curve] | –
O=C(CCNC(=O)c1ccccc1Cl)Nc1nc(-c2ccc3ccccc3c2)cs1 | – | inconclusive: 2.71%
CCOC(=O)c1nn(-c2ccc3c(c2)CCN3C(C)=O)cc1O | – | inconclusive: -3.18%
Cc1noc(NS(=O)(=O)c2ccc(NC(=O)Cc3ccc([N+](=O)[O-])cc3)cc2)c1C | – | inactive
Cn1ncc([N+](=O)[O-])c1C(=O)N/N=C/c1c[nH]c2ccccc12 | inconclusive: 35.5 µM [falling, single point] | –
CC(=O)c1c(C)[nH]c(C(=O)COC(=O)CCSc2ccccc2)c1C | – | inconclusive: 9.63%
COc1ccc(CNC(=O)C(=O)c2cn(CC(=O)N3CCCC3)c3ccccc23)cc1 | inconclusive: 7.94 µM [falling, partial curve, poor fit] | –
Cc1ccc(OCCCC(=O)Nc2ccc(S(=O)(=O)Nc3cc(C)nc(C)n3)cc2)cc1 | – | inconclusive: 20.9%
COc1ccc(-c2csc(NC(=O)Cn3nc(C)cc3C)n2)cc1 | – | inconclusive: 0.13%
O=C(O)c1ccc2c(c1)C(=O)N(Cc1ccc3c(c1)OCO3)C2=O | inconclusive: 32.6 µM [rising, partial curve, poor fit] | –
COc1cccc2[nH]c3c(N4CCC(C)CC4)ncnc3c12 | – | inconclusive: 1.08%
CC1(C)C2CCC1(C)C(NC(=O)/C=C/c1ccccc1)C2 (stereo not given) | – | inconclusive: 21%
COc1ccc(S(=O)(=O)N(C)C[C@@H]2Oc3c(NS(C)(=O)=O)cccc3C(=O)N([C@@H](C)CO)C[C@H]2C)cc1 | – | inactive
Cc1cc(F)ccc1N1CCC(N2CCN(CCC(C)C)C(CCO)C2)CC1 (stereo not given) | inconclusive: 8.91 µM [falling, partial curve, poor fit] | –
COCCN(Cc1cc2cc3c(cc2nc1Cl)OCO3)C(C)=O | – | inconclusive: 296%
CC(C)c1ccc(OCC(=O)NNC(=S)NC(=O)C2CC2)cc1 | – | inconclusive: -1.84%
NC(=O)NC(CC(=O)NCCc1ccc(S(N)(=O)=O)cc1)c1ccc(Cl)cc1 (stereo not given) | – | inconclusive: -0.618%
CCOC(=O)N1CCC(=NNc2nc3ccccc3s2)CC1 | inconclusive: 31.6 µM [falling, single point] | –
CC(Sc1nc(N(C)C)nc(N2CCOCC2)n1)C(=O)Nc1ccccc1 (stereo not given) | – | inactive
N#Cc1nc(-c2ccco2)oc1N1CCN(c2cccc(Cl)c2)CC1 | – | inconclusive: 0.732%
O=C(c1ccc(COc2c(F)c(F)c(F)c(F)c2F)o1)N1CCOCC1 | – | inconclusive: -4.12%
Cc1ccc(SCC(=O)OCC(=O)N(C)CC(=O)Nc2ccc(F)cc2)cc1C | inconclusive: 11.6 µM [falling, partial curve] | –
O=C(Nc1ccccc1)/C(=C\c1ccco1)NC(=O)c1ccco1 | inconclusive: 31.6 µM [falling, single point] | –
O=C(NC1CCN(Cc2ccc3ccccc3c2)CC1)c1ccccc1 | – | inactive
O=C(CN1C(=O)C2CC=CCC2C1=O)N1CCN(c2ccc([N+](=O)[O-])cc2)CC1 (stereo not given) | – | inconclusive: 6.26%
CCN1CCN(CCNC(=O)c2ccc(/C=C3/Sc4ccccc4N(Cc4cccc(Cl)c4)C3=O)cc2)CC1 | – | inactive

Compound | Potency | activity change, negative = inhibition
CC1CCN(C(=O)C2COc3ccccc3O2)CC1 (stereo not given) | – | inactive
Cc1cccc(-c2nc(C#N)c(NCC3CCCO3)o2)c1 (stereo not given) | – | inconclusive: 7.5%
CCOCCCNC(=O)c1cc(Nc2ccc(OC)cc2OC)nc2ccccc12 | – | inconclusive: -3.17%
CCC(C)NC(=O)COC(=O)c1ccccc1OCC(=O)Nc1ccc(Br)cc1 (stereo not given) | inconclusive: 23.1 µM [falling, single point] | –
COc1cccc(NC(=O)C(C)(C)C)c1 | – | inactive
Cc1c(C(=O)Nc2ccccc2)csc1-c1ccccc1 | – | inconclusive: -2.48%
CCCCNC(=O)CSc1nc(CCC)nc2ccccc12 | – | inconclusive: -18.5%
COc1ccc(NC(=O)CSc2cc(C(=O)c3nccn3C)c3ccccc3n2)cc1 | inconclusive: 4.47 µM [falling, partial curve, poor fit] | –
O=C(COC(=O)c1cccnc1SCC(=O)NCc1ccccc1)NCc1ccccc1 | inconclusive: 32.6 µM [falling, single point] | –
CCN1C(=O)S/C(=C/c2c(OCc3ccc(C(=O)O)cc3)ccc3ccccc23)C1=O | – | inconclusive: -7.56%
CCOC(=O)c1nn(-c2ccc(F)cc2)cc1O | – | inactive
CCOc1cc(S(=O)(=O)N(Cc2ccccc2)Cc2ccccc2)c(OCC)cc1-n1cnnn1 | – | inactive
CCCCn1c(NC(C)=O)c(C#N)c2nc3ccccc3nc21 | – | inconclusive: 10.9%
O=C(O)c1cc(O)ccc1NC(=O)c1cccc2ccccc12 | inconclusive: 12.6 µM [falling, partial curve] | –
Cc1cccc(CN2CCCC(C(=O)Nc3ccc(-c4cscn4)cc3)C2)c1 (stereo not given) | inconclusive: 35.5 µM [falling, single point] | –
COc1ccc(CN(CCc2ccccc2)Cc2ccccc2)cc1OC | – | inconclusive: 6.76%
O=C(Nc1ccc(NC(=O)c2ccco2)nc1)c1ccccn1 | inconclusive: 11.2 µM [falling, partial curve] | –
COc1ccc(C(=O)NCCn2cc(SCC(=O)NCc3ccco3)c3ccccc32)cc1 | – | inconclusive: -0.0469%
COc1ccccc1CNC(=O)C1CCC(CNS(=O)(=O)c2ccc(F)cc2)CC1 (stereo not given) | – | inconclusive: -21.6%
CCOC(=O)c1c(-c2ccc(-c3ccccc3)cc2)csc1NC(=O)C1C2CCC(O2)C1C(=O)O (stereo not given) | – | inconclusive: 18.9%
Cc1nn(C)c(C(=O)NNC(=S)NCc2ccccc2)c1Cl | – | inconclusive: 4.12%
O=C(Nc1nc2c(s1)CCCC2)c1cc(-c2ccccc2)nc2ccccc12 | inconclusive: 6.51 µM [falling, single point] | –
COc1ccc2ccc(=O)oc2c1CC=C(C)C | – | inconclusive: 2.57%
CC1(C)CC(CCN)(Cc2ccccc2Cl)CCO1 (stereo not given) | – | inactive
COc1cc(C2/C(=C(\O)c3ccc4c(c3)CC(C)O4)C(=O)C(=O)N2CCCn2ccnc2)cc(OC)c1OC (stereo not given) | – | inactive
Cc1ccc(-c2ccc(/C=N/n3cnnc3)o2)cc1Cl | – | inconclusive: 4.59%
Cc1n[nH]c(=S)n1/N=C/c1ccc(-c2ccccc2[N+](=O)[O-])o1 | inconclusive: 29.1 µM [falling, single point] | –

Compound | Potency | activity change, negative = inhibition
COc1ccc(-c2nc(NC(=O)CSCCO)sc2C)cc1 | inconclusive: 1.26 µM [falling, partial curve, poor fit] | –
CCN(CC)c1ccc2c(C)cc(=O)oc2c1 | – | inconclusive: -19.3%
COc1ccc(S(=O)(=O)N2CCCC(N(C)CCc3ccccc3)C2)cc1OC (stereo not given) | – | inconclusive: 3.12%
O=C(NC1CCCCCC1)C(=O)NC1CCCC1 | – | inconclusive: -7.68%
COc1ccc2nc(Nc3nc(-c4ccncc4)cs3)sc2c1 | – | inconclusive: -3.61%
Cc1ccccc1C(=O)Nc1ccc2nc3n(c(=O)c2c1)CCC3 | inconclusive: 20.6 µM [falling, partial curve] | –
CCOC(=O)c1ccc(-c2c(C(=O)OCC)oc3cc(O)c(CC)cc3c2=O)o1 | inconclusive: 29.1 µM [cytotoxic, single point] | –
CCOC(=O)c1c(CN2CCCCC2)n(C)c2cc(Br)c(O)cc12 | – | inconclusive: 13.5%
CC(C)CCNC(=S)Nc1ccc([N+](=O)[O-])cc1 | – | inconclusive: 4.51%
CCc1ccc(Nc2ncc3c(n2)CC(C)(C)CC3=O)cc1 | – | inactive
CCOC(=O)c1oc2ccc(CNC3CCCCC3)c(Cl)c2c1C | – | inconclusive: -6.08%
CNC(=O)c1cc(C(=O)c2c(Cl)cccc2Cl)c[nH]1 | – | inconclusive: -10.6%
S=C(NC1CCCCC1)N1CCN(c2ncccn2)CC1 | – | inconclusive: 26.1%
COCCCN1C(=O)c2[nH]nc(-c3cc(C)cc(C)c3O)c2C1c1ccc(O)c(OC)c1 (stereo not given) | – | inconclusive: -16.6%
CN(C)CC(CCC(CN(C)C)C(O)(c1ccccc1)c1ccccc1)C(O)(c1ccccc1)c1ccccc1 (stereo not given) | – | inconclusive: -24.1%
CC1CN(C(=O)c2ccc(COc3ccc(C(C)C)cc3)o2)CC(C)O1 (stereo not given) | – | inactive
C[C@@H]1CCC(=O)N(CC[C@H](Sc2ccc(Br)cc2)c2ccccc2)CC1 | – | inconclusive: 5.19%
CCOC(=O)C(=CNc1ccc(Cl)cn1)C(=O)OCC | – | inconclusive: -6.91%
Cc1nnc(NC(=O)COc2ccc3c(C)cc(=O)oc3c2)s1 | – | inconclusive: 28.6%
Cc1cc(C)c2nc(/N=C(\N)NC(=O)Nc3ccccc3)nc(C)c2c1 | – | inactive
Cc1ccccc1C(=O)OCn1nnc2ccccc2c1=O | – | inactive
C(=N\Nc1nc(N2CCCC2)nc(N2CCCC2)n1)/c1ccccc1OCc1ccccc1 | – | inactive
Cc1ccc(CNCC(O)(c2ccccc2)c2ccccc2)cc1 | – | inconclusive: -13.1%
Cc1ccsc1/C=N/Nc1nc2ccccc2[nH]1 | inconclusive: 25.9 µM [rising, single point] | –
CCCCN(CC)CCCNC(=S)Nc1ccc2nc(N3CCN(C)CC3)cc(C)c2c1 | – | inconclusive: -21.7%
COCCn1ccc2c(OCC(=O)NCc3ccc(F)cc3)cccc2c1=O | inconclusive: 11.2 µM [falling, partial curve, poor fit] | –
